From the supplement of paper PMC9015667
Structures can show the parent of a compound that is named as a salt. Some of the results follow. Most values come without repeats; read them as rough.

What follows are compounds tested on M229R (matched melanoma line resistant to BRAF inhibitors) (assay: reduction in cell viability relative to untreated/vehicle; higher = more growth inhibition). Conditions: 200 nM; 72 h.

**Q.** CCCCc1ccc(NS(=O)(=O)c2ccc(C)c(C(=O)N3CCN(c4cccc(C)c4C)CC3)c2)cc1 was tested. Which “reduction in cell viability” value did it give?
**A.** < 0%

**Q.** For COc1ccccc1N1CCN(CC(O)COc2cccc3ccccc23)CC1 (stereo not given) [Naftopidil], which “reduction in cell viability” value is on record?
**A.** < 0%

**Q.** Which “reduction in cell viability” value does the source give for CN[C@H]1CN(c2ccc3c(=O)c(C(=O)O)cn(-c4nccs4)c3n2)C[C@@H]1OC [Vosaroxin] here?
**A.** < 0%

**Q.** With NC(=O)OCC(COC(N)=O)c1ccccc1 [Felbamate] as the compound, how does the “reduction in cell viability” value read?
**A.** < 0%

**Q.** CC/C(=C(\c1ccc(O)cc1)c1ccc(OCCNC)cc1)c1ccccc1 [Endoxifen] was tested. Which “reduction in cell viability” value did it give?
**A.** < 0%

**Q.** With CC[C@H]1OC(=O)[C@H](C)[C@@H](O[C@H]2C[C@@](C)(OC)[C@@H](O)[C@H](C)O2)[C@H](C)[C@@H](O[C@@H]2O[C@H](C)C[C@H](N(C)C)[C@H]2O)[C@](C)(O)C[C@@H](C)CN(C)[C@H](C)[C@@H](O)[C@]1(C)O [Azithromycin] as the compound, how does the “reduction in cell viability” value read?
**A.** < 0%

**Q.** Nc1ccn([C@@H]2CO[C@H](CO)O2)c(=O)n1 [Troxacitabine] was tested. Which “reduction in cell viability” value did it give?
**A.** < 0%

**Q.** Which “reduction in cell viability” value does the source give for COc1cc(N2CCC(N3CCN(C)CC3)CC2)ccc1Nc1ncc(Cl)c(Nc2ccccc2S(=O)(=O)C(C)C)n1 here?
**A.** 40.2%

**Q.** COC(=O)N1CCN(Cc2cccc(NC(=O)Nc3ccc(C)nc3)c2F)CC1 [Omecamtiv mecarbil] was tested. Which “reduction in cell viability” value did it give?
**A.** < 0%

**Q.** With COc1ccc(C(=O)CC(=O)c2ccc(C(C)(C)C)cc2)cc1 [Avobenzone] as the compound, how does the “reduction in cell viability” value read?
**A.** < 0%

**Q.** How did the “reduction in cell viability” value turn out when C=CC(=O)N1CCc2ccc(-n3c(=O)ccc4cnc5ccc(-c6cnn(C)c6)cc5c43)cc21 was run?
**A.** < 0%

**Q.** Which “reduction in cell viability” value does the source give for O=c1ccc2ccc(O)c(O)c2o1 [Daphnetin] here?
**A.** < 0%

**Q.** Which “reduction in cell viability” value does the source give for CO[C@H]1/C=C\C=C(/C)C(=O)NC2=CC(=O)C(NCCN(C)C)=C(C[C@@H](C)C[C@H](OC)[C@H](O)[C@@H](C)/C=C(\C)[C@@H]1OC(N)=O)C2=O [Alvespimycin hydrochloride] here?
**A.** 72.4%

**Q.** O=C(O)c1cc(O)c2c(c1)C(=O)c1cccc(O)c1C2=O [Rhein] was tested. Which “reduction in cell viability” value did it give?
**A.** < 0%

**Q.** Cc1[nH]nc2ccc(-c3cncc(OC[C@@H](N)Cc4ccccc4)c3)cc12 was tested. Which “reduction in cell viability” value did it give?
**A.** 27.5%

**Q.** CN1CCCN(C(=O)c2cccc(-c3ccc(/C=C4/C(=O)Nc5ccc(Cl)cc54)o3)c2)CC1 was tested. Which “reduction in cell viability” value did it give?
**A.** < 0%

**Q.** How did the “reduction in cell viability” value turn out when CCCCS(=N)(=O)CCC(N)C(=O)O (stereo not given) [Buthionine sulfoximine] was run?
**A.** < 0%

**Q.** Which “reduction in cell viability” value does the source give for Cc1[nH]c(/C=C2\C(=O)Nc3ccccc32)c(C)c1CCC(=O)O [Orantinib] here?
**A.** < 0%

**Q.** How did the “reduction in cell viability” value turn out when C1CCC(C(CC2CCCCN2)C2CCCCC2)CC1 (stereo not given) [Perhexiline] was run?
**A.** < 0%

**Q.** How did the “reduction in cell viability” value turn out when Cc1ccc(S(=O)(=O)N[C@@H](Cc2ccccc2)C(=O)CCl)cc1 was run?
**A.** < 0%

**Q.** Which “reduction in cell viability” value does the source give for NC(=O)Cc1cccc(C(=O)c2ccccc2)c1N [Nepafenac] here?
**A.** < 0%

**Q.** Nc1ncnc2c1c(-c1cccc(OCc3ccccc3)c1)cn2C1CC(CN2CCCC2)C1 (stereo not given) was tested. Which “reduction in cell viability” value did it give?
**A.** 22.9%

**Q.** Which “reduction in cell viability” value does the source give for N#CN=C(NCCCCCCOc1ccc(Cl)cc1)Nc1ccncc1 here?
**A.** 73.3%

**Q.** With O=c1[nH]c(=O)n(C2CCCO2)cc1F (stereo not given) [Tegafur] as the compound, how does the “reduction in cell viability” value read?
**A.** < 0%

**Q.** For COc1cc2ncnc(Nc3cccc(Br)c3)c2cc1OC, which “reduction in cell viability” value is on record?
**A.** < 0%

**Q.** For O=C(O)Cc1ccccc1Nc1c(Cl)cccc1Cl [Diclofenac sodium], which “reduction in cell viability” value is on record?
**A.** < 0%

**Q.** For CS(=O)(=O)c1cc(F)cc2c3c(n(Cc4ccc(Cl)cc4)c12)[C@@H](CC(=O)O)CC3 [Laropiprant], which “reduction in cell viability” value is on record?
**A.** < 0%

**Q.** Which “reduction in cell viability” value does the source give for Cc1cnc(Nc2ccc(F)cc2Cl)nc1-c1c[nH]c(C(=O)N[C@H](CO)c2cccc(Cl)c2)c1 here?
**A.** < 0%

**Q.** With O=C(O)c1ccc(-n2nc(-c3ccccc3O)nc2-c2ccccc2O)cc1 [Deferasirox] as the compound, how does the “reduction in cell viability” value read?
**A.** < 0%

**Q.** With COCC(=O)NC/C=C/c1ccc2ncnc(Nc3ccc(Oc4ccc(C)nc4)c(C)c3)c2c1 as the compound, how does the “reduction in cell viability” value read?
**A.** < 0%

**Q.** For COc1cccc2c1C(=O)c1c(O)c3c(c(O)c1C2=O)C[C@@](O)(C(=O)CO)C[C@@H]3O[C@H]1C[C@H](N)[C@@H](O)[C@H](C)O1 [Epirubicin hydrochloride], which “reduction in cell viability” value is on record?
**A.** 25.9%

**Q.** With Cn1cc(/C=C/C(=O)c2cccc(F)c2)cc1/C=C/C(=O)NO as the compound, how does the “reduction in cell viability” value read?
**A.** < 0%

**Q.** With CC(C)(OCc1nn(Cc2ccccc2)c2ccccc12)C(=O)O [Bindarit] as the compound, how does the “reduction in cell viability” value read?
**A.** < 0%

**Q.** With CC[C@H](CO)Nc1nc(NCc2ccccc2)c2ncn(C(C)C)c2n1 [Seliciclib] as the compound, how does the “reduction in cell viability” value read?
**A.** < 0%

**Q.** Which “reduction in cell viability” value does the source give for CC(=O)N1CCN(c2ccc(OCc3nn(C)c(C)c3-c3cccc4c(CCCOc5cccc6ccccc56)c(C(=O)O)n(Cc5cccnc5)c34)cc2)CC1 here?
**A.** < 0%

**Q.** Which “reduction in cell viability” value does the source give for NCCCC(N)(C(=O)O)C(F)F (stereo not given) [Eflornithine Hydrochloride] here?
**A.** < 0%

**Q.** With O=C(Nc1ncc(SCCN2CCCC2)s1)[C@]1(c2ccc(S(=O)(=O)C3CC3)cc2)C[C@H]1C1CCCCC1 as the compound, how does the “reduction in cell viability” value read?
**A.** < 0%

**Q.** With Cc1cc(Nc2cc(NC(=O)c3c(Cl)cccc3Cl)ccn2)nc(N)n1 as the compound, how does the “reduction in cell viability” value read?
**A.** 3.06%

**Q.** C#Cc1cccc(Nc2ncnc3cc(OCCOC)c(OCCO)cc23)c1 was tested. Which “reduction in cell viability” value did it give?
**A.** < 0%

**Q.** Nc1nc(OCc2ccccc2)c2nc[nH]c2n1 [O6-Benzylguanine] was tested. Which “reduction in cell viability” value did it give?
**A.** < 0%
